Laboratory results from patent publication EP2045266A1, “Methods for treating and diagnosing a cancer secreting cath-D or Alzheimer's disease” (priority 2007, dated 2009).
These are yes or no findings as the source states them, for the method shown. For some of these results: Binding seen in cells or lysates may run through a third protein. Some binding calls cover weakened binding; strength is not graded here.

Protein sequences, listed by entry. Tags and fused reporters are not part of them. Lines headed by an entry give the natural chain unless they say otherwise; changes in a name come on top. Residues count along the entry.
UniProt Q07954: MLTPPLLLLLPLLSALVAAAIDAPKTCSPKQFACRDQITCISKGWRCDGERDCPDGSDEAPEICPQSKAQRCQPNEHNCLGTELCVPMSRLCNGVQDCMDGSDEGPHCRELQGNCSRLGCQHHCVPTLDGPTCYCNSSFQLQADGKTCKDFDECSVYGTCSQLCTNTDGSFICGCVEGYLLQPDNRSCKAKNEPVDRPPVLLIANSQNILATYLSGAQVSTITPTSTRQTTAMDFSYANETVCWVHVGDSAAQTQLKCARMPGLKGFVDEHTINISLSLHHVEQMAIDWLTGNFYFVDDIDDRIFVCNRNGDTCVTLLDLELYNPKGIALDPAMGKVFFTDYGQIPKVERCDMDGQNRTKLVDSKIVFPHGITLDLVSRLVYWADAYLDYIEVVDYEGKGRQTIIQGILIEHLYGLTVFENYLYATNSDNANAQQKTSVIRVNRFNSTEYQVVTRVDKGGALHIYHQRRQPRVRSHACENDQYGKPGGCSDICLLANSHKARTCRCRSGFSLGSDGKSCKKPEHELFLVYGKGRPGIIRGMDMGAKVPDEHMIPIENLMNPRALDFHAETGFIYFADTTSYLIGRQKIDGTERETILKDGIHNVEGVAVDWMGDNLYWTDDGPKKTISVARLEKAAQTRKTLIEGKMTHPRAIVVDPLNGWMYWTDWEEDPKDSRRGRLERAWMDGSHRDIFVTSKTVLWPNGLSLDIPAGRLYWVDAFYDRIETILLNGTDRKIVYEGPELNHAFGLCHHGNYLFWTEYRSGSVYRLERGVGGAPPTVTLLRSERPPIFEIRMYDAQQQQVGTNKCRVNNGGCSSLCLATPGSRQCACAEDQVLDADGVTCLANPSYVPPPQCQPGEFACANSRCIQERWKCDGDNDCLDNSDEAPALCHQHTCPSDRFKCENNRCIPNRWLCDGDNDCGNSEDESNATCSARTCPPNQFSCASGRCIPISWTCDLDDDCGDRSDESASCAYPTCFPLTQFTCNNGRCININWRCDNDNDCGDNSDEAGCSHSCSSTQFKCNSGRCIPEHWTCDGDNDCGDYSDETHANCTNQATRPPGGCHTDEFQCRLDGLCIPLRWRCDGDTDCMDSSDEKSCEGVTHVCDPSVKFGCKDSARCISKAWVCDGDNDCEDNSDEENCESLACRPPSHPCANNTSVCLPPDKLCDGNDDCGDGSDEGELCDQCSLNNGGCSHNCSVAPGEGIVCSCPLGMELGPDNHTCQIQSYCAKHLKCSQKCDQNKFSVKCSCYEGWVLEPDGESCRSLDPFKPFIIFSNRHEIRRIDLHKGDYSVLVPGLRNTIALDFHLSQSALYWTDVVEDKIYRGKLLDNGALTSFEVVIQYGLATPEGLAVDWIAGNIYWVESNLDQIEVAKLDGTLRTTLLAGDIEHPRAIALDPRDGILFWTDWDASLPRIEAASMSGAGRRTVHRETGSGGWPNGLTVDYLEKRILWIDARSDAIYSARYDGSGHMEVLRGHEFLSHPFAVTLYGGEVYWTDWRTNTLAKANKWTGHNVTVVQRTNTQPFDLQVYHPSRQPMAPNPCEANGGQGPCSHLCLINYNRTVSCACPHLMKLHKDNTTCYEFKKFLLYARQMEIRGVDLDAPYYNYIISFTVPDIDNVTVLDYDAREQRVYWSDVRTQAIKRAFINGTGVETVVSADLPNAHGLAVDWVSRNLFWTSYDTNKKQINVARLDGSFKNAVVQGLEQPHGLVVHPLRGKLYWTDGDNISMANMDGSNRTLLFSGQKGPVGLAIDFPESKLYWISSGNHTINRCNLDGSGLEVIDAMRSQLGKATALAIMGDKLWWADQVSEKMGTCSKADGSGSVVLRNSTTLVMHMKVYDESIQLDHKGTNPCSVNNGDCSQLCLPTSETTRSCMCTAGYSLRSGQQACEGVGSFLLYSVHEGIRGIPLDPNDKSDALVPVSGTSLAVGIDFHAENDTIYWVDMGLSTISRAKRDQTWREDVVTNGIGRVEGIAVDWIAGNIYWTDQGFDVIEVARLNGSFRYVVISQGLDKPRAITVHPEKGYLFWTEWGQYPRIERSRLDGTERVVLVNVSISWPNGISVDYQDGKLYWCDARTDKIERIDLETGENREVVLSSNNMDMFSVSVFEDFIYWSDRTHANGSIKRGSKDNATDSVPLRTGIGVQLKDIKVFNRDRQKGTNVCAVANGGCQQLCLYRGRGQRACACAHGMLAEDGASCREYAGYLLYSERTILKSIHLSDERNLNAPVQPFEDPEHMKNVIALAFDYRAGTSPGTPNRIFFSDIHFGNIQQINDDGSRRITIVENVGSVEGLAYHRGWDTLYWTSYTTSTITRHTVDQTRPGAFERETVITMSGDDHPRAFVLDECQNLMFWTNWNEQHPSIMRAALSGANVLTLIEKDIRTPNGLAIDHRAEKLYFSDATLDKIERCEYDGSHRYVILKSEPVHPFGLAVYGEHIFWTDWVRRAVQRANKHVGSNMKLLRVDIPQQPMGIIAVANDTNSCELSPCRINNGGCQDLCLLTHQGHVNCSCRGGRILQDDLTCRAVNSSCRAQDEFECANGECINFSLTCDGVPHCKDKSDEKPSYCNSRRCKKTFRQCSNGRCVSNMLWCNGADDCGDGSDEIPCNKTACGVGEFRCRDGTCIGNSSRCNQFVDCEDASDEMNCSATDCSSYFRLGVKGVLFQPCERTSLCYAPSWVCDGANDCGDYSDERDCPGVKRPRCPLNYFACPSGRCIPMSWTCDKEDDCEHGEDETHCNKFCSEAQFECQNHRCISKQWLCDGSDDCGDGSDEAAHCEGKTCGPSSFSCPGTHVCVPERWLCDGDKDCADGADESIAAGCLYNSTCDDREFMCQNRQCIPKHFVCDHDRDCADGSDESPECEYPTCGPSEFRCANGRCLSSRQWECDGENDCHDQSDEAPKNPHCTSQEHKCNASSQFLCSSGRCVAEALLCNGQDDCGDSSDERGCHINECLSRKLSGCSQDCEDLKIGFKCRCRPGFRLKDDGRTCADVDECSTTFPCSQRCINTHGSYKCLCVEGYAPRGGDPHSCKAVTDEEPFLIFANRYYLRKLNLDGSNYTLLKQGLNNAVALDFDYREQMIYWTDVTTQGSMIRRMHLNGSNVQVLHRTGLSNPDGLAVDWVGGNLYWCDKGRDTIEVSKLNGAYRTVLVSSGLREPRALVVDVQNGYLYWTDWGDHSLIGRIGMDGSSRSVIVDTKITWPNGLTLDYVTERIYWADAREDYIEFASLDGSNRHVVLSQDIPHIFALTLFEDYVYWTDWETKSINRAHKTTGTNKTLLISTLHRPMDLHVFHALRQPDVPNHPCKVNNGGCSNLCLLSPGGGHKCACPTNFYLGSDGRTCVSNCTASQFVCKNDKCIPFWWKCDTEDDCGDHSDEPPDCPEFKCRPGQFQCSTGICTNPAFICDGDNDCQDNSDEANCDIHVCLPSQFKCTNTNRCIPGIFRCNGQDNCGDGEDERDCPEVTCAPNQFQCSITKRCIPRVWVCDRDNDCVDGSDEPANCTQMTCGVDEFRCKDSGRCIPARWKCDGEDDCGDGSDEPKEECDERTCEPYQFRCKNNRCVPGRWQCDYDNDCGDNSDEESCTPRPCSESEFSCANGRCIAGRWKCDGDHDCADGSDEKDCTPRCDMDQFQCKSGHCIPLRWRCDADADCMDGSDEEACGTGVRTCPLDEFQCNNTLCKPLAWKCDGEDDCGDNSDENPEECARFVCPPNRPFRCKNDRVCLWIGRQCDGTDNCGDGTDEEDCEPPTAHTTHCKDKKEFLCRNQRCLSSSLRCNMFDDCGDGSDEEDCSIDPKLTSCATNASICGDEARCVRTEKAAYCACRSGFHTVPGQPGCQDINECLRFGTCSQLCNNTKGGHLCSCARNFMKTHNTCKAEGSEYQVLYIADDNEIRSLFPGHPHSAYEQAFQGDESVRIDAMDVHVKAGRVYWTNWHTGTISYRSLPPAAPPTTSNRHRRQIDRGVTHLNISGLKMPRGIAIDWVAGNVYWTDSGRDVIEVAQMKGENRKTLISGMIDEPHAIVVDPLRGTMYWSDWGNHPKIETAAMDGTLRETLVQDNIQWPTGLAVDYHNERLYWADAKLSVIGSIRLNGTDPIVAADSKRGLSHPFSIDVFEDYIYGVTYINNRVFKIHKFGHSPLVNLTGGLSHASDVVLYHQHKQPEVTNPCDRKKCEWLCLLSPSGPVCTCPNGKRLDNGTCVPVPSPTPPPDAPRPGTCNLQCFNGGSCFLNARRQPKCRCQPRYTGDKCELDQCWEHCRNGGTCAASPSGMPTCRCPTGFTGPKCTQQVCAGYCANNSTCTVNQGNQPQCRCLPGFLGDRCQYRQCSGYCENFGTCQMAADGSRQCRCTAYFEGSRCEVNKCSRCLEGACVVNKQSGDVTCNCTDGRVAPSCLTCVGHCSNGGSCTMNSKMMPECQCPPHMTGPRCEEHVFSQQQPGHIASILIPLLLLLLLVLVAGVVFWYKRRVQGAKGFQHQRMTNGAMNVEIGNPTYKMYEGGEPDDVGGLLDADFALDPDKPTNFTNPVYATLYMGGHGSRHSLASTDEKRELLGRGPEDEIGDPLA
UniProt P07339: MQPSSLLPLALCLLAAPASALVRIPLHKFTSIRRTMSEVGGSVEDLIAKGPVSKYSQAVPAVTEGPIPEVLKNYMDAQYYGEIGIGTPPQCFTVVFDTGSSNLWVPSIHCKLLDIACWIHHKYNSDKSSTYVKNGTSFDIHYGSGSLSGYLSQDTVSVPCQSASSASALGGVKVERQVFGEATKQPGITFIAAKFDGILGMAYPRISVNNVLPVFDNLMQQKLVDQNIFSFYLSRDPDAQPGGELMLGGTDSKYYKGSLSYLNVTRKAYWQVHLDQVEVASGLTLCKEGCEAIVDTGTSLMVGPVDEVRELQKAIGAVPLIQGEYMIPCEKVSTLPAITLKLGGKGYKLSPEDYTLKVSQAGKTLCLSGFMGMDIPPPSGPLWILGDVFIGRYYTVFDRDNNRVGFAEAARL
GST-cath-D/14K: residues 65-162 of P07339
GST-cath-D/34K: residues 169-412 of P07339
UniProt P0A7C2: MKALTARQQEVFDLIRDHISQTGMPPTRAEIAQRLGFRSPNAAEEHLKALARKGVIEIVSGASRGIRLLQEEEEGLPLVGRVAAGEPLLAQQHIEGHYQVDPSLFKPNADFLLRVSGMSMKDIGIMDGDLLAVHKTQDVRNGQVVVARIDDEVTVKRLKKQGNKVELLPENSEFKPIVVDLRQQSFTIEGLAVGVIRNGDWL

Key:
[1] = target: Myc-LRP1β (Myc-tagged LRP1 β chain) (human) (UniProt Q07954); assay: co-immunoprecipitation from co-transfected COS cells, longer gel exposure
[2] = target: B42 activation domain fusion of LRP1β (307-479) (yeast two-hybrid clone, pYESTrp2-LRP1β (307-479)) (human) (UniProt Q07954); assay: yeast two-hybrid, LexA bait against B42 prey
LRP1-IV-HA mini-receptor [3] = target: LRP1-IV-HA mini-receptor (UniProt Q07954); assay: co-immunoprecipitation from co-transfected COS cells
[4] = target: Myc-LRP1β (Myc-tagged LRP1 β chain) (human) (UniProt Q07954); assay: as above
GST-cath-D/52K (human) = GST-cath-D/52K (human) (UniProt P07339); assay: GST pull-down, 35S-labelled LRP1β (1-476) on GST-cath-D beads
GST-cath-D/14K (human) = GST-cath-D/14K (human) (UniProt P07339); assay: as above
GST-cath-D/34K (human) = GST-cath-D/34K (human) (UniProt P07339); assay: as above
[5] = target: GST-LRP1β (307-479) (human) (UniProt Q07954); assay: GST pull-down, 35S-labelled pro-cath-D on GST-fusion beads, autoradiography
[6] = target: GST-LRP1β fragment F4 (349-394) (human) (UniProt Q07954); assay: GST pull-down, 35S-labelled pro-cath-D on GST-LRP1β fragment beads
[7] = target: Myc-LRP1β (Myc-tagged LRP1 β chain) (human) (UniProt Q07954); assay: co-immunoprecipitation, as summed up in the discussion
LRP1-IV-HA mini-receptor [8] = target: LRP1-IV-HA mini-receptor (UniProt Q07954); assay: co-immunoprecipitation from co-transfected COS cells, anti-LRP1β IP, anti-cath-D blot
LRP1-IV-HA mini-receptor [9] = target: LRP1-IV-HA mini-receptor (UniProt Q07954); assay: co-immunoprecipitation from co-transfected COS cells, anti-HA IP with anti-cath-D blot and anti-cath-D IP with anti-HA blot
[10] = target: Myc-LRP1β (Myc-tagged LRP1 β chain) (human) (UniProt Q07954); assay: co-immunoprecipitation from co-transfected COS cells (anti-LRP1β IP, anti-cath-D blot; reciprocal IP confirmed)

34 kDa cath-D polypeptide (mature heavy chain, in COS cells) (from UniProt P07339 169-412) (enzyme)
binding [1]: binds

48 kDa cath-D polypeptide (intermediate form, in COS cells) (from UniProt P07339 65-412) (enzyme)
binding [1]: binds

LexA DNA-binding domain fusion of 14 kDa mature light chain of human cath-D (from UniProt P0A7C2 1-202; P07339 65-162)
binding [2]: binds

LexA DNA-binding domain fusion of 34 kDa mature heavy chain of human cath-D (from UniProt P0A7C2 1-202; P07339 169-412)
binding [2]: binds

LexA DNA-binding domain fusion of 48 kDa intermediate of human cath-D (from UniProt P0A7C2 1-202; P07339 65-412)
binding [2]: binds

cath-D (wild-type human cath-D expressed from a transfected vector) (from UniProt P07339 21-412) (enzyme)
binding (LRP1-IV-HA mini-receptor [3]): binds
binding [4]: binds

full-length extracellular domain of LRP1β (1-476) (from UniProt Q07954 3944-4419) (receptor)
binding (GST-cath-D/52K (human)): binds
binding (GST-cath-D/14K (human)): binds
binding (GST-cath-D/34K (human)): binds

pro-cath-D (52 kDa precursor of human cathepsin D) (from UniProt P07339 21-412) (enzyme)
binding [5]: binds
binding [6]: binds
binding [7]: binds
binding (LRP1-IV-HA mini-receptor [8]): binds
binding (LRP1-IV-HA mini-receptor [9]): binds
binding [10]: binds
